The values that follow come from article PMC9126027.

By UniProt entry, the sequences of proteins in these tests, tags left out.
UniProt P50750: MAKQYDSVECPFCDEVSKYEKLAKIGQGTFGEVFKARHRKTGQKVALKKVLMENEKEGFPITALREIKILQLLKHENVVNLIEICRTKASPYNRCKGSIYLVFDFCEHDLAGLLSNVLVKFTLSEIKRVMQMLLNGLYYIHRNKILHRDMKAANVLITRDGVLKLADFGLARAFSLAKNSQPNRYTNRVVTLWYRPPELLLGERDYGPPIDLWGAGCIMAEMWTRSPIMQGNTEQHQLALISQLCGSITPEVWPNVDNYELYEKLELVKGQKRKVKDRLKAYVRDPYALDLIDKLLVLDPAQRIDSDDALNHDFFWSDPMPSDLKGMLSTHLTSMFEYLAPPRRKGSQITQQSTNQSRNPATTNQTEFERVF
UniProt P17844: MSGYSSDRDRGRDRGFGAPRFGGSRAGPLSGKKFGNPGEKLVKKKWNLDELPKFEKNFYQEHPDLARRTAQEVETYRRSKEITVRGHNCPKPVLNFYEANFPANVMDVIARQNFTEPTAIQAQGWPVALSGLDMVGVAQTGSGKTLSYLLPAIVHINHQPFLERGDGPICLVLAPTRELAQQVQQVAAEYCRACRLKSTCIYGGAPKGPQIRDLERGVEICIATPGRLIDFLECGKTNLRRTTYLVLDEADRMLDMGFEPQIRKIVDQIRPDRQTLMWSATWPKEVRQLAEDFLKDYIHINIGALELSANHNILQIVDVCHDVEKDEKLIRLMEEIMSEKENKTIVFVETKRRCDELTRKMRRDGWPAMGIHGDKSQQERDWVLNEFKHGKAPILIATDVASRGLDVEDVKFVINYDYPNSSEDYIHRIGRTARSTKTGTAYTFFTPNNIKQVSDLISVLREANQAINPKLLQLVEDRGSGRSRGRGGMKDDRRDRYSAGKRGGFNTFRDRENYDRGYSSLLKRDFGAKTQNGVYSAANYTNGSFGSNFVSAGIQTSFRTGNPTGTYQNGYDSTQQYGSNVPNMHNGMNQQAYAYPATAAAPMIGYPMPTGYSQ
UniProt Q9NQB0: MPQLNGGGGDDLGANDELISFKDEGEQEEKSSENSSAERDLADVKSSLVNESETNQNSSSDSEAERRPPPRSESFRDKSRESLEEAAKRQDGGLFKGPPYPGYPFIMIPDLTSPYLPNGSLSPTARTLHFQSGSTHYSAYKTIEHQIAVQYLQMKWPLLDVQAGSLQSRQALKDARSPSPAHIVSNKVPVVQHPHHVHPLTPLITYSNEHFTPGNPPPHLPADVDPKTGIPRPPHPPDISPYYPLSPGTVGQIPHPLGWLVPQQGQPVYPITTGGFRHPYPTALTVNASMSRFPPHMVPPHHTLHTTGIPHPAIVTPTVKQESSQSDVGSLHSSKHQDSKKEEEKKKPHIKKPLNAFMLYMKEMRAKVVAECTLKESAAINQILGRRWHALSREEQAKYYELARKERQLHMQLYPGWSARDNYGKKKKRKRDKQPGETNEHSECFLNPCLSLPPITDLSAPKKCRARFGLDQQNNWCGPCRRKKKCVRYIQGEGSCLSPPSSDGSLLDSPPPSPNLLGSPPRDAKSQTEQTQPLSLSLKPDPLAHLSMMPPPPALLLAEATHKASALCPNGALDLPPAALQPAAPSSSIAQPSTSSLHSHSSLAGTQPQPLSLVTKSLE
UniProt P01106: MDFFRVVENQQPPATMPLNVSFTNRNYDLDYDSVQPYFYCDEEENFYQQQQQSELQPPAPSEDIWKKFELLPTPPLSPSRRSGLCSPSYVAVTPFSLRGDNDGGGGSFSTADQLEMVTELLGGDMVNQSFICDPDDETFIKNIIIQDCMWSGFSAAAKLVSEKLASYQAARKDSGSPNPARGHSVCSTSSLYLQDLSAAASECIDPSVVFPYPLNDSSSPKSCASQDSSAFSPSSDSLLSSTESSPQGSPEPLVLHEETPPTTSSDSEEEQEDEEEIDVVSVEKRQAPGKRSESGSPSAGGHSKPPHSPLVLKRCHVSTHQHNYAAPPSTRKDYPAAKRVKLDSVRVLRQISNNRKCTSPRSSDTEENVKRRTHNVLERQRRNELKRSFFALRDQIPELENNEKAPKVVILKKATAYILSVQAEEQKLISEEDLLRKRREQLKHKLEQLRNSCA

The target in assay [1] is CDK9 (human (endogenous in HCT-8, SW620)) (UniProt P50750). In words: co-IP; IP with CDK9 antibody (control IgG) from lysates of HCT-8 and SW620 cells, western blot with DDX5 antibody; endogenous proteins. For orientation: In western blotting, separated proteins are transferred to a membrane and probed.
The target in assay [2] is DDX5 (also called p68) (human (endogenous in SW620, Panc-1, HCT-8)) (UniProt P17844). In words: co-IP; IP with anti-DDX5 antibody (normal IgG as control) from lysates of SW620 and Panc-1 cells (Figure 4C) and of HCT-8 and SW620 cells (Figure 4E,F); RIPA lysis buffer, protein A/G-agarose, 4°C; western blots of the partners; endogenous proteins.

Results are given in words; binding and its absence hold for the method and conditions named. Binding seen in cells or lysates may run through a third protein. Some entries that bind do so weakly or less than the wild type.

“DDX5 (also called p68) (from UniProt P17844 1-614)”: the binding entry in assay [1] was “binds”.

With TCF‐4 (from UniProt Q9NQB0 1-619), the binding entry in assay [2] is “binds”.

Turning to c‐Myc (from UniProt P01106 1-454), the binding result in assay [2] is “binds”.

B1: c‐Rel/NF‐κB (protein, UniProt Q04864 1-619)
chain: MASGAYNPYIEIIEQPRQRGMRFRYKCEGRSAGSIPGEHSTDNNRTYPSIQIMNYYGKGKVRITLVTKNDPYKPHPHDLVGKDCRDGYYEAEFGQERRPLFFQNLGIRCVKKKEVKEAIITRIKAGINPFNVPEKQLNDIEDCDLNVVRLCFQVFLPDEHGNLTTALPPVVSNPIYDNRAPNTAELRICRVNKNCGSVRGGDEIFLLCDKVQKDDIEVRFVLNDWEAKGIFSQADVHRQVAIVFKTPPYCKAITEPVTVKMQLRRPSDQEVSESMDFRYLPDEKDTYGNKAKKQKTTLLFQKLCQDHVETGFRHVDQDGLELLTSGDPPTLASQSAGITVNFPERPRPGLLGSIGEGRYFKKEPNLFSHDAVVREMPTGVSSQAESYYPSPGPISSGLSHHASMAPLPSSSWSSVAHPTPRSGNTNPLSSFSTRTLPSNSQGIPPFLRIPVGNDLNASNACIYNNADDIVGMEASSMPSADLYGISDPNMLSNCSVNMMTTSSDSMGETDNPRLLSMNLENPSCNSVLDPRDLRQLHQMSSSSMSAGANSNTTVFVSQSDAFEGSDFSCADNSMINESGPSNSTNPNSHGFVQDSQYSGIGSMQNEQLSDSFPYEFFQV
Take B1: in assay [2], the binding result is “binds”.
